Experimental findings from patent US20070036793A1, “Methods for use of an lkb1/strad7mo25 complex” (priority 2003, published 2007) are described below.

Chains of the proteins cited; added tags and fusions are not shown. Residues count along the entry.
UniProt P08238, residues 2-724: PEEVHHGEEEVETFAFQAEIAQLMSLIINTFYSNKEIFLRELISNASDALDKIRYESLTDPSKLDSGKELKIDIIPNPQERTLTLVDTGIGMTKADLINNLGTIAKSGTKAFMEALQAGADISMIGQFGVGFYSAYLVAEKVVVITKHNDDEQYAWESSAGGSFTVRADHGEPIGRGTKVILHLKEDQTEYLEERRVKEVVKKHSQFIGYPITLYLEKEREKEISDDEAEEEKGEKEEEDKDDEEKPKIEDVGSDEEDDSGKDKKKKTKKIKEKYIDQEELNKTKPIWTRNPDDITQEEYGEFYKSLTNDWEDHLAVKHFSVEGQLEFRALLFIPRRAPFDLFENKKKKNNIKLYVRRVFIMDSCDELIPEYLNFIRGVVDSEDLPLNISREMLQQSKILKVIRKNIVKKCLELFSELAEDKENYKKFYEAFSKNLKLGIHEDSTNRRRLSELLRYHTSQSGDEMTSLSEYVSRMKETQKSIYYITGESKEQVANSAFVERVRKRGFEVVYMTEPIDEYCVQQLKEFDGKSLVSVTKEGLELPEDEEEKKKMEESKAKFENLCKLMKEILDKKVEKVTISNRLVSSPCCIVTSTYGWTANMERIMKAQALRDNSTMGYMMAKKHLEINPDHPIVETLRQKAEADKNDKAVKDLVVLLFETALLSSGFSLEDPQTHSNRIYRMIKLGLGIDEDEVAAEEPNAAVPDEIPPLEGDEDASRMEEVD

Where a chain is given by its changes, count along the chain named. These are yes or no findings as the source states them, for the method shown. Some results given as binding are weak or reduced against the parent protein; the word gives no strength. Where a sequence is shown, tags or fusion partners need not be part of it.

For assay [1], the target named is T1, N-terminal Flag epitope tagged kinase dead LKB1 (D194A) (mouse) (UniProt Q9WTK7).
T1 sequence: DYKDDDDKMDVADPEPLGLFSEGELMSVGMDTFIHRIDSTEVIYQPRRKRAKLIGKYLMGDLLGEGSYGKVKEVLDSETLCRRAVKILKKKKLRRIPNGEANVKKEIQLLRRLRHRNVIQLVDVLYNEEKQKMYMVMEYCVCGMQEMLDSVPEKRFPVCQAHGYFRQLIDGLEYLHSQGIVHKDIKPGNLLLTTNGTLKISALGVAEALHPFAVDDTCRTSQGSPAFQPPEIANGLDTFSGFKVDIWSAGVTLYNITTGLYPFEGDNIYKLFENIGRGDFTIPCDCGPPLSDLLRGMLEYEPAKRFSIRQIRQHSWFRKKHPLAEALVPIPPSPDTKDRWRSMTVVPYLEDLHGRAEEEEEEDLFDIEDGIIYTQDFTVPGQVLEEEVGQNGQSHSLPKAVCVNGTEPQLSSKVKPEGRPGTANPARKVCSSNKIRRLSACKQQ
Put plainly: anti-Flag affinity purification of Flag-LKB1 from HeLa cells; mass fingerprint and immunoblot.

The target of assay [2] is T2, N-terminal Flag epitope tagged wild type LKB1 (mouse) (UniProt Q9WTK7).
T2 sequence: T1 sequence with A202D
Described as above.

As to “Hsp90 chaperone protein, endogenous in HeLa cells (from UniProt P08238 2-724)”, the binding entry in assay [1] and in assay [2] was “binds” in each case.
